# The other results are listed elsewhere or left out. Shown are side measurements of this screen, not its main read-out; they come without a call. Most of these compounds were active or inconclusive in the main read-out, so they are no random draw. Potencies come from curve fits of mixed quality, noted in brackets.
# Assay: qHTS Assay for Lipid Storage Modulators in Drosophila S3 Cells;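 on cell number change: cells counted by Cell Tracker Red CMTPX staining in the red channel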
# Conditions: BODIPY lipid droplet fluorescence, 18-24 h; for cell number change: measured here: cell count max response, cells fed with added oleic acid
# How it was run: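 Drosophila S3 cells got compounds at several concentrations plus oleic acid (400 uM solution). Laser-scanning cytometry with 488 nm excitation read lipid droplets at 500-530 nm and cells at 575-640 nm. Percent activity was relative to 20 uM Triacsin C.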
# [1] = measured here: lipid fluorescence (Fed channel) AC50, cells fed with added oleic acid
# [2] = measured here: cell number channel AC50, cells fed with added oleic acid
Structure (SMILES),cell number change [%],AC50 [1],AC50 [2]
COc1ccccc1NS(=O)(=O)CC12CCC(CC1=O)C2(C)C (stereo not drawn),-0.365,"1.84 µM [rising, full curve]",
C=CCc1cc(/C=C/c2nc(O)c([N+](=O)[O-])c(=O)[nH]2)cc(OC)c1O,-20.3,"23.1 µM [falling, single point]","0.731 µM [falling, full curve, poor fit]"
CCOC(=O)C(NC(=O)c1ccccc1Cl)(Nc1ccc(C(F)(F)F)cc1)C(F)(F)F (stereo not drawn),-45.4,"5.17 µM [falling, full curve]","18.4 µM [falling, single point]"
CCCCN(CCCC)C(=O)c1cc(Cl)ccc1[N+](=O)[O-],130,"6.51 µM [falling, single point]","25.9 µM [rising, partial curve]"
CCCN1Cc2cccc(C(=O)NCc3ccc4c(c3)OCO4)c2C1=O,4.33,"0.461 µM [rising, full curve]",
COc1ccc(NC(=O)CSc2ccc3c4c(cccc24)C(=O)c2ccccc2-3)cc1,28.2,"3.66 µM [falling, full curve, poor fit]",
COc1ccc(C(=O)C2CCN(C(=O)c3ccc(F)cc3)CC2)cc1,-16.5,"0.58 µM [rising, full curve]",
C=CCOc1ccc(/C=N/NC(=O)c2c(C)nc3ccc(Cl)cn23)cc1,20.7,"0.206 µM [rising, full curve, poor fit]",
CCC(C)n1c(/C=C/c2ccccc2)nc2ccccc21 (stereo not drawn),10.1,"1.16 µM [falling, single point]","0.651 µM [falling, single point]"
CCOc1ccc(NC(=O)C(CC(=O)O)Cc2ccc(Br)cc2)cc1 (stereo not drawn),-11.9,"4.11 µM [falling, full curve]",
CCCCc1cc(=O)oc2cc(OCC(=O)NCc3ccccn3)c(Cl)cc12,-16.2,"2.31 µM [falling, partial curve]","4.61 µM [falling, partial curve, poor fit]"
Cc1ccc(S(=O)(=O)N2CCC(=O)CC2)cc1,-32.1,"1 µM [falling, full curve]","1.26 µM [falling, full curve]"
COCCCNC(=S)NNC(=O)c1ccccc1Br,31.5,"5.17 µM [rising, single point]",
COc1ccc2c(c1)c(=O)c(C(=O)c1ccccc1)cn2Cc1ccccc1,15.1,"0.651 µM [rising, partial curve, poor fit]","0.0231 µM [rising, full curve, poor fit]"
COc1ccc(C)cc1-n1nnnc1SCC(=O)N1CCC(C(=O)Nc2nccs2)CC1,-19.5,,
Cc1ccc(NC(=O)CSC2=C(C#N)C(c3ccco3)CC(=O)N2)cc1 (stereo not drawn),4.17,"0.58 µM [rising, single point]",
O=C(NC(CO)Cc1ccc([N+](=O)[O-])cc1)C(Cl)Cl (stereo not drawn),,"3.66 µM [rising, single point]","6.51 µM [rising, single point]"
Cc1ccc2occ(C(=O)c3ccco3)c(=O)c2c1,55.6,,"29.1 µM [rising, single point]"
COc1ccccc1CNC(=O)CC1C(=O)NCCN1C1Cc2ccccc2C1 (stereo not drawn),-6.93,"1.84 µM [falling, single point]",
OC1(Cc2cc(-c3ccccc3)no2)CCN(CCCc2ccccc2)CC1,27.4,"23.1 µM [rising, single point]",
COc1ccc(S(=O)(=O)N2CCCC2)c(C)c1C,,"3.66 µM [rising, single point]",
CCCc1cc(=O)oc2cc(C)cc(OC(C)C(=O)NCC(O)c3ccccc3)c12 (stereo not drawn),23.9,,
Cc1ccnc(NC(=O)CCC(=O)N(CC(=O)NCc2ccc(F)cc2)CC2CCCO2)c1 (stereo not drawn),-5.41,"6.51 µM [rising, partial curve, poor fit]",
CC(=O)NC(Cc1ccccc1)C(=O)OCC(=O)c1ccccc1 (stereo not drawn),-5.4,"6.51 µM [rising, single point]","2.91 µM [rising, single point]"
O=C(Oc1ccc(=O)n(-c2ccccc2)n1)c1ccc(F)cc1,-5.67,"1.16 µM [falling, single point]",
Cc1ccc(OCC(=O)N2CCc3ccccc32)cc1,66.7,,"18.4 µM [rising, single point]"
O=C(/C=C/c1ccc(Cl)cc1)NCc1ccco1,,"1.84 µM [rising, partial curve]",

# Arranged by count of non-hydrogen atoms (descending): 3 of the compounds above.
Structure (SMILES),cell number change [%],AC50 [1],AC50 [2]
COc1ccc(NC(=O)CSc2ccc3c4c(cccc24)C(=O)c2ccccc2-3)cc1,28.2,"3.66 µM [falling, full curve, poor fit]",
CCCc1cc(=O)oc2cc(C)cc(OC(C)C(=O)NCC(O)c3ccccc3)c12 (stereo not drawn),23.9,,
Cc1ccc(S(=O)(=O)N2CCC(=O)CC2)cc1,-32.1,"1 µM [falling, full curve]","1.26 µM [falling, full curve]"

# Reference: PubChem BioAssay AID2685 (National Center for Advancing Translational Sciences (NCATS), 2010)
